This note sets out measurements from the RNAGym collection of RNA variant scans (doi:10.1126/science.aae0568).

Sequences and labels used below:
B1: tRNA (parent)
chain: GUUCCGUUGGCGUAAUGGUAACGCGUCUCCCUCCUAAGGAGAAGACUGCGGGUUCGAGUCCCGUACGGAACG

Variants at the background level are over-represented here.

In the data set the parent is B1. In words: yeast fitness relative to wild type (ratio to wild type); higher = fitter; tRNA-Arg(CCU), competitive growth, 37 C, YPD. A digest of the protocol: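 Genotype frequency changes were the basis for Darwinian fitness relative to wild type. The frequencies came from 100-nucleotide paired-end sequencing of gene amplicons from the start population and each end population of pooled yeast strains with tRNA-Arg(CCU) gene variants at the native locus. Competition ran in YPD at 37°C for 24 hours in six replicates, genotypes needed ≥ 100 starting reads, and estimates < 0.5 were set to 0.5.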
On to GAUCCCUUGGCGUAACGGUAACGUGUCUCCCUCCUAAGGAGAAGACUGCGGGUUCGAGUCCCGUACGAAACG, for which the yeast fitness was not above 0.5. As to GUUCCGUUGGCAUAAUGGUACCGCGUCUCCCUCCUAAGGAGAAGACUGCGGGUUCGAGACCCGUACAGAACG, the yeast fitness was not above 0.5. To GUUCCGUUGGCGUACUGCUAACGCGUCUCCCUCCUAAGGAGAAGACUGCGGGUUCGAGUCCCGUACGGAGCG belongs not above 0.5; to GUUCCGUUGGCGGAAUGGUAACGCGUCUCCCUCCUAAGGAGAAAACUGCGGGUUCGUGUCCCGUACAGAACG, not above 0.5; to GUUCCGUUGGCGUAAUGGUGACGCGUCUCCCUCCUAAGGAGAAGACUGUGGGUUCGAGUACCGUACGGACCG, not above 0.5.

Turning to GUUGCGUUGGUGUGAUGGUAACGCGUCUCCCUCCUAAGGAGAACACUGCGGGUUCGAGUCGCGUACGGAACG, the yeast fitness was not above 0.5. To GUUUCGUUGGCGUAAUGGUAACGCGUCUUCUUCCUAAGGAGAAGACUGCGGGUUCGAGUCCCGUCCGGAACG belongs not above 0.5; to GUCCGGUUGGCGUAAUGGUGACGCGUCUCCCUCCUAAGGAGAAGACUGCGGGUUCGAGUCCCCUAGGGAACG, not above 0.5; to GUUCCGUCGGCGUAAUGGUGACGCGUCUCCCUCCUAAGGAGAAGACUGCGGGUUCGAGUCCCGUGCGAAACG, not above 0.5. To GUUCCGUUGGCGUAAUGGUAGCGCGUCUCCCUCCUAAGGGGAAGACUGCGGGUUAGAGUCCCGUACGAAACG belongs not above 0.5; to GUUCCGUAGGCGUAAUGCUAACGAGUCUCCCCCCUAAGGAGAAGACUGCGGGUUCGAGUCCCGUACGGAUCG, not above 0.5. In the case of GUUCCGUUGGCGUAAUGGUGACGCGUCUUCCUCCUAAGGAGAAGACUGCGGGUUCGCGUCCCGUACAGAACG it was not above 0.5; in that of GAUCCGUUGGCGUAAUGGUAACACGUCUGCCUCCUAAGGAGAAGACUGCGGGUUCGAGUCUCGUACGGAACG, not above 0.5. In the case of GUUCCGUUGGCGUAAUGGUAACGCGUCUCCCUCCUAAGGAGCAGUGUGCGGGUUCGACUCCCGUACGGAUCG, the yeast fitness was not above 0.5. GUUCCGUAGGAGUAAUGGUAACGCGUCUCCCUCCUAAGGAGAAGACUGCGGGUUCGAGUCCCGUAAGGAACG: the yeast fitness was not above 0.5. To GUUCCGUUGGCGUAAUGGUAACGCGUCUCCCACCUAAGGAGAAGACUGCGGGUUCGUGUCCCGUACGGUACG belongs not above 0.5; to GUUUCGUUGGCGUAAUGGUAACGAGUCUCCCUCCUAAGGAGAAGACUGCGGGUUCGUGUACCGUACGCAACG, not above 0.5; to GUUCCGUUGGCGUUAUGGUAACGCGUCUCCCUCCUAAGGAGAACACUGCGAGUUCGAGUCCCGUACGGAUCG, 0.596. As to GUUCCGUUGGCGUAAUGGUAACGCGUUUCCCUCCUAAGGAGACGACUGCGGGUUCGAGUCCCGCACGGAACG, the yeast fitness was determined as 0.732. As for GUUCGGUUGAGGUAAGGGUAACGCGUCUCCCUGCUAAGGAGAAGACUGCGGGUUCCAGUCCCGUACGGAACG, the yeast fitness was not above 0.5. With GUUCCGUUGCCGUAAUGGUAACACGUUUCCCUCCUAAGGAGAAGACUGCGGGUUCGAGUCCCGUACGGAACG, the yeast fitness was not above 0.5.

With GUUCCGUUGGCGAUAUGGUAAGGCGUCUCCCUCCUAAGGAGAAGUCUGCGGGUUCGAGUCCCAUACGGAACG, the yeast fitness was not above 0.5. Consider GUUCCGUUGGCGUAAUGGUAACGCGUCUCGCUGUUAAGGAGUAGACUGCGGGUUCGAGUCCCGUAUCGAACG, for which the yeast fitness is not above 0.5.

Take GUCCCGUUGGCGUAAUGGUAACGCGUCUCCCGCUUAAGGAGAAGACUGCGGGUUCGAGUCCCGUAUGGAACG: the yeast fitness is not above 0.5.

GUUCCGUUGGCGUAAUGGUAACGCGUCUCCCUCCUAAGGAGCAGACUGCGGGUUCGAGACCCGUACGGUACG: the yeast fitness is 0.528. Consider GUUCCGUUGGUGUAAUGGUAACGCAUCUCCCUCCUAAGGAGAAGACUGCGGGUUCGAGUCCUGUACGGACCG, for which the yeast fitness was found to be 0.67.

On to GUUCCGGUGGCGAAGUGGUAACGCGUCUCCCCCCUAAGGAGAAGACUGCGGGUACGAGUCUCGUACGGAACG, for which the yeast fitness was not above 0.5. As to GUAUCGUUGGCGUAAUGGUAACGCGUCUCCCUGGUAAGGAGAAAACUCCGGGUUGGAGUCCCGUACGGUACG, the yeast fitness is not above 0.5. Take GUUCUGUUGGCGUAAUGCUAAAGCGUCUCCCUCCUAAGGAGAAGACUGCGGGUUCGAGUCCCGUACGGAUCG: the yeast fitness is not above 0.5. For the variant GUUCCGUUGGCGUGAUGGUAACGCGUCUCCCUCCUAAGGAGAAGAUUGCAGCUUCGAGUCCCGUACCGAACG, the yeast fitness was not above 0.5.

Consider GUUCCGUUGGCGUAAUGGUAACGCGACUGCCUCCUAAGGAGAAGACUGCGGGAUCGAGUCCCGUACGGAACG, for which the yeast fitness was not above 0.5. For the variant GUUCCGUUGGCGUUAUGGUAACGCGUCUCCCUCCUAAGGAGAAAACUGCGGGUUCGAGUCCCGUUCGGAACG, the yeast fitness is not above 0.5. As for GUUCCGUUGGCGUAAUGGUAACGCGUCUCCCUCCUAAGGAGAAGACUACGAGUUCGAGUCCCGUACGGUACG, the yeast fitness turned out to be 0.755. For GUUCCGUUGGCGUAAUGGUAACGCGUCUCCCUCCUAAGGAGAAGGCUGCGGGUUCGAGCCCCGUACGGAACG, the yeast fitness is 1.03. GUUCCGUUGGCGUCAUGGUAACGCGUCUCCCUCCUAAGGAGAGGACUGCGGGUUCGAGUCCCGUUCGGAACG: the yeast fitness is not above 0.5. In the case of GUUCCGUUGGCGUAAUGCUAAUGCGUCUCCCUCGUAAGGAGAAGACUGCGGGUUCGAGUCCCGUACGGAACG it was 0.688; in that of GUUCCGUUGGCGUAAUGGUAACGCGUAUCCCUCCUAAGGGGAAGACUGCGGGUUCGAGUCGCGUAUGGAACG, not above 0.5.
